Read-outs that look alike come from different tables or passages of the source. Results are given in words; binding and its absence hold for the method and conditions named. Binding seen in cells or lysates may run through a third protein. Some binding calls cover weakened binding; strength is not graded here. For some assays here: Tags and fused reporters may be left off the sequences shown.
Key:
Assay in all cases: co-IP
V5-pRb (pLX304-pRb-V5) [1] = molecular target: T1, V5-pRb (pLX304-pRb-V5) (UniProt P06400)
T1 sequence: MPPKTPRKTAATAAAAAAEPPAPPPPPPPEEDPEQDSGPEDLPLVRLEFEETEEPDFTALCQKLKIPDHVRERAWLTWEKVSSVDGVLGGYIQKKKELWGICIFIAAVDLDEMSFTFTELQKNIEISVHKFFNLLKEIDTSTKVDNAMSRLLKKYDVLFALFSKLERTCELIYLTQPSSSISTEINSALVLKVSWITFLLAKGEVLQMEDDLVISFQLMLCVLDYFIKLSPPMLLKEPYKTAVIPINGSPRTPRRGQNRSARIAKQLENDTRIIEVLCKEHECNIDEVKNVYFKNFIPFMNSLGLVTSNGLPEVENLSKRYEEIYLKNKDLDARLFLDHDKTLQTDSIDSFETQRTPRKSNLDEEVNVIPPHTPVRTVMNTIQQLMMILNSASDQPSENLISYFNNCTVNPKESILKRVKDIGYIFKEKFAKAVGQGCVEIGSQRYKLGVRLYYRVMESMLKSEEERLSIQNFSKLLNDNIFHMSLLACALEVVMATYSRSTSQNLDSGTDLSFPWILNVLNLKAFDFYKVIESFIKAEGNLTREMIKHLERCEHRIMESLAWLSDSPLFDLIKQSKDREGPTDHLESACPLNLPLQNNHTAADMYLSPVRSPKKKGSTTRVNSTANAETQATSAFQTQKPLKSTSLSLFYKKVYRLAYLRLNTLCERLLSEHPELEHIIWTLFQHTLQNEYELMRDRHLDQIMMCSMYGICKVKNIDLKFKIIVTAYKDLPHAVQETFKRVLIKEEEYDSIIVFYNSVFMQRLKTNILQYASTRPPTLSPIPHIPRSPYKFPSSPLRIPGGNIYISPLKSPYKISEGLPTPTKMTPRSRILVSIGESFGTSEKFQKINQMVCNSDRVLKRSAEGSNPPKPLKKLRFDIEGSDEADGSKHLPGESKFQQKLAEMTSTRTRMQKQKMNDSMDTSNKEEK

The chains behind the UniProt entries cited, without tags or fusion partners.
UniProt P62136: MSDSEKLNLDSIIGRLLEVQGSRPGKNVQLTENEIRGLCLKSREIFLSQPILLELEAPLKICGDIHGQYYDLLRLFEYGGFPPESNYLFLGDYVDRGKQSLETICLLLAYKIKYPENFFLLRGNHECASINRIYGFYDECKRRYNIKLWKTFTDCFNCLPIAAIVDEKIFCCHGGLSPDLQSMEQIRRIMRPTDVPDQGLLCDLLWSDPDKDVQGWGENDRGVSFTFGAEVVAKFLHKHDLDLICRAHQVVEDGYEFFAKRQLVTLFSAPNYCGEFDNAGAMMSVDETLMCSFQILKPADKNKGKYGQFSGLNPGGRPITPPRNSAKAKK
UniProt P35226: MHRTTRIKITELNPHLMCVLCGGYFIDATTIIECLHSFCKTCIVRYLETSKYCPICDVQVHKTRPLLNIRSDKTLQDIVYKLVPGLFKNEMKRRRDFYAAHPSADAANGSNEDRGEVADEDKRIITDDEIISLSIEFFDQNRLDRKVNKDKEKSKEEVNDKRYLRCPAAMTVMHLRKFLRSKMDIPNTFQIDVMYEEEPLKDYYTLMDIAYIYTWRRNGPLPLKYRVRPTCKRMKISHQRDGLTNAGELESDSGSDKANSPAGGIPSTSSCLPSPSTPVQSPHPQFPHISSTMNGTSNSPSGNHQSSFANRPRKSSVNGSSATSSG

[2] = molecular target: T2, RASSF6 (endogenous, SW480 cells) (human (endogenous in SW480)) (UniProt Q6ZTQ3)
T2 sequence: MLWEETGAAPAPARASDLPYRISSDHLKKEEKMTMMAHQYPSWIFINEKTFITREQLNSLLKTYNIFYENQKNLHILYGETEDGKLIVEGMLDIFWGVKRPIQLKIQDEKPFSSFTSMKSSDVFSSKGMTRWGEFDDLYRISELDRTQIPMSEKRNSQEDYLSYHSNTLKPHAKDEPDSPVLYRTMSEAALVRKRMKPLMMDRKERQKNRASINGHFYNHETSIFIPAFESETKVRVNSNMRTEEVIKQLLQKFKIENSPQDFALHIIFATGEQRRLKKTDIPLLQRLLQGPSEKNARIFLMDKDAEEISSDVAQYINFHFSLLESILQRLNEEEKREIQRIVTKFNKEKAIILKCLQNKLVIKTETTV

V5-pRb (pLX304-pRb-V5) [3] = molecular target: T1, V5-pRb (pLX304-pRb-V5); remark: listed apart in the source
[4] = molecular target: T2, RASSF6 (endogenous, SW480 cells) (human (endogenous in SW480)); remark: listed apart in the source
[5] = molecular target: T3, FLAG-RASSF6 (pCIneoFHF-RASSF6) (UniProt Q6ZTQ3)
T3 sequence: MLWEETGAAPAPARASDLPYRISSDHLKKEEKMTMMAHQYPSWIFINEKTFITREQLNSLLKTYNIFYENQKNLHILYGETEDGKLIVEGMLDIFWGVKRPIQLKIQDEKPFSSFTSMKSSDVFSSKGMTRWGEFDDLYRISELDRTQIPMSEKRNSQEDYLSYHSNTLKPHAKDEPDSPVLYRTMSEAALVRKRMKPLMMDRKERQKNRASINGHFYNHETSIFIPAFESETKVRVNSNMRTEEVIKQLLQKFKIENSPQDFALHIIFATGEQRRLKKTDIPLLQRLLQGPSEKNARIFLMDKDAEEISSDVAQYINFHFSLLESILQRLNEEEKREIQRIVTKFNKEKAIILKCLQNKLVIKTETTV

luciferase-fused PP1A (pCIneoLuc-PP1A) (from UniProt P62136 1-330) (enzyme)
binding (V5-pRb (pLX304-pRb-V5) [1]): binds

polycomb complex protein BMI1 (endogenous, SW480 cells) (from UniProt P35226 1-326)
binding [2]: binds

B1: FLAG-RASSF6 (pCIneoFHF-RASSF6) (protein, UniProt Q6ZTQ3 1-369)
chain: MLWEETGAAPAPARASDLPYRISSDHLKKEEKMTMMAHQYPSWIFINEKTFITREQLNSLLKTYNIFYENQKNLHILYGETEDGKLIVEGMLDIFWGVKRPIQLKIQDEKPFSSFTSMKSSDVFSSKGMTRWGEFDDLYRISELDRTQIPMSEKRNSQEDYLSYHSNTLKPHAKDEPDSPVLYRTMSEAALVRKRMKPLMMDRKERQKNRASINGHFYNHETSIFIPAFESETKVRVNSNMRTEEVIKQLLQKFKIENSPQDFALHIIFATGEQRRLKKTDIPLLQRLLQGPSEKNARIFLMDKDAEEISSDVAQYINFHFSLLESILQRLNEEEKREIQRIVTKFNKEKAIILKCLQNKLVIKTETTV
binding (V5-pRb (pLX304-pRb-V5) [3]): binds

B2: Retinoblastoma protein (endogenous, SW480 cells) (protein, UniProt P06400 1-928)
chain: MPPKTPRKTAATAAAAAAEPPAPPPPPPPEEDPEQDSGPEDLPLVRLEFEETEEPDFTALCQKLKIPDHVRERAWLTWEKVSSVDGVLGGYIQKKKELWGICIFIAAVDLDEMSFTFTELQKNIEISVHKFFNLLKEIDTSTKVDNAMSRLLKKYDVLFALFSKLERTCELIYLTQPSSSISTEINSALVLKVSWITFLLAKGEVLQMEDDLVISFQLMLCVLDYFIKLSPPMLLKEPYKTAVIPINGSPRTPRRGQNRSARIAKQLENDTRIIEVLCKEHECNIDEVKNVYFKNFIPFMNSLGLVTSNGLPEVENLSKRYEEIYLKNKDLDARLFLDHDKTLQTDSIDSFETQRTPRKSNLDEEVNVIPPHTPVRTVMNTIQQLMMILNSASDQPSENLISYFNNCTVNPKESILKRVKDIGYIFKEKFAKAVGQGCVEIGSQRYKLGVRLYYRVMESMLKSEEERLSIQNFSKLLNDNIFHMSLLACALEVVMATYSRSTSQNLDSGTDLSFPWILNVLNLKAFDFYKVIESFIKAEGNLTREMIKHLERCEHRIMESLAWLSDSPLFDLIKQSKDREGPTDHLESACPLNLPLQNNHTAADMYLSPVRSPKKKGSTTRVNSTANAETQATSAFQTQKPLKSTSLSLFYKKVYRLAYLRLNTLCERLLSEHPELEHIIWTLFQHTLQNEYELMRDRHLDQIMMCSMYGICKVKNIDLKFKIIVTAYKDLPHAVQETFKRVLIKEEEYDSIIVFYNSVFMQRLKTNILQYASTRPPTLSPIPHIPRSPYKFPSSPLRIPGGNIYISPLKSPYKISEGLPTPTKMTPRSRILVSIGESFGTSEKFQKINQMVCNSDRVLKRSAEGSNPPKPLKKLRFDIEGSDEADGSKHLPGESKFQQKLAEMTSTRTRMQKQKMNDSMDTSNKEEK
binding [4]: binds

B3: V5-pRb (pLX304-pRb-V5) (protein, UniProt P06400 1-928)
chain: MPPKTPRKTAATAAAAAAEPPAPPPPPPPEEDPEQDSGPEDLPLVRLEFEETEEPDFTALCQKLKIPDHVRERAWLTWEKVSSVDGVLGGYIQKKKELWGICIFIAAVDLDEMSFTFTELQKNIEISVHKFFNLLKEIDTSTKVDNAMSRLLKKYDVLFALFSKLERTCELIYLTQPSSSISTEINSALVLKVSWITFLLAKGEVLQMEDDLVISFQLMLCVLDYFIKLSPPMLLKEPYKTAVIPINGSPRTPRRGQNRSARIAKQLENDTRIIEVLCKEHECNIDEVKNVYFKNFIPFMNSLGLVTSNGLPEVENLSKRYEEIYLKNKDLDARLFLDHDKTLQTDSIDSFETQRTPRKSNLDEEVNVIPPHTPVRTVMNTIQQLMMILNSASDQPSENLISYFNNCTVNPKESILKRVKDIGYIFKEKFAKAVGQGCVEIGSQRYKLGVRLYYRVMESMLKSEEERLSIQNFSKLLNDNIFHMSLLACALEVVMATYSRSTSQNLDSGTDLSFPWILNVLNLKAFDFYKVIESFIKAEGNLTREMIKHLERCEHRIMESLAWLSDSPLFDLIKQSKDREGPTDHLESACPLNLPLQNNHTAADMYLSPVRSPKKKGSTTRVNSTANAETQATSAFQTQKPLKSTSLSLFYKKVYRLAYLRLNTLCERLLSEHPELEHIIWTLFQHTLQNEYELMRDRHLDQIMMCSMYGICKVKNIDLKFKIIVTAYKDLPHAVQETFKRVLIKEEEYDSIIVFYNSVFMQRLKTNILQYASTRPPTLSPIPHIPRSPYKFPSSPLRIPGGNIYISPLKSPYKISEGLPTPTKMTPRSRILVSIGESFGTSEKFQKINQMVCNSDRVLKRSAEGSNPPKPLKKLRFDIEGSDEADGSKHLPGESKFQQKLAEMTSTRTRMQKQKMNDSMDTSNKEEK
binding [5]: binds

Reference: publication doi:10.1101/334276
